Experimental findings from PMC12596413 are described below.

Protein sequences, listed by entry. Tags and fused reporters are not part of them.
UniProt Q5S006: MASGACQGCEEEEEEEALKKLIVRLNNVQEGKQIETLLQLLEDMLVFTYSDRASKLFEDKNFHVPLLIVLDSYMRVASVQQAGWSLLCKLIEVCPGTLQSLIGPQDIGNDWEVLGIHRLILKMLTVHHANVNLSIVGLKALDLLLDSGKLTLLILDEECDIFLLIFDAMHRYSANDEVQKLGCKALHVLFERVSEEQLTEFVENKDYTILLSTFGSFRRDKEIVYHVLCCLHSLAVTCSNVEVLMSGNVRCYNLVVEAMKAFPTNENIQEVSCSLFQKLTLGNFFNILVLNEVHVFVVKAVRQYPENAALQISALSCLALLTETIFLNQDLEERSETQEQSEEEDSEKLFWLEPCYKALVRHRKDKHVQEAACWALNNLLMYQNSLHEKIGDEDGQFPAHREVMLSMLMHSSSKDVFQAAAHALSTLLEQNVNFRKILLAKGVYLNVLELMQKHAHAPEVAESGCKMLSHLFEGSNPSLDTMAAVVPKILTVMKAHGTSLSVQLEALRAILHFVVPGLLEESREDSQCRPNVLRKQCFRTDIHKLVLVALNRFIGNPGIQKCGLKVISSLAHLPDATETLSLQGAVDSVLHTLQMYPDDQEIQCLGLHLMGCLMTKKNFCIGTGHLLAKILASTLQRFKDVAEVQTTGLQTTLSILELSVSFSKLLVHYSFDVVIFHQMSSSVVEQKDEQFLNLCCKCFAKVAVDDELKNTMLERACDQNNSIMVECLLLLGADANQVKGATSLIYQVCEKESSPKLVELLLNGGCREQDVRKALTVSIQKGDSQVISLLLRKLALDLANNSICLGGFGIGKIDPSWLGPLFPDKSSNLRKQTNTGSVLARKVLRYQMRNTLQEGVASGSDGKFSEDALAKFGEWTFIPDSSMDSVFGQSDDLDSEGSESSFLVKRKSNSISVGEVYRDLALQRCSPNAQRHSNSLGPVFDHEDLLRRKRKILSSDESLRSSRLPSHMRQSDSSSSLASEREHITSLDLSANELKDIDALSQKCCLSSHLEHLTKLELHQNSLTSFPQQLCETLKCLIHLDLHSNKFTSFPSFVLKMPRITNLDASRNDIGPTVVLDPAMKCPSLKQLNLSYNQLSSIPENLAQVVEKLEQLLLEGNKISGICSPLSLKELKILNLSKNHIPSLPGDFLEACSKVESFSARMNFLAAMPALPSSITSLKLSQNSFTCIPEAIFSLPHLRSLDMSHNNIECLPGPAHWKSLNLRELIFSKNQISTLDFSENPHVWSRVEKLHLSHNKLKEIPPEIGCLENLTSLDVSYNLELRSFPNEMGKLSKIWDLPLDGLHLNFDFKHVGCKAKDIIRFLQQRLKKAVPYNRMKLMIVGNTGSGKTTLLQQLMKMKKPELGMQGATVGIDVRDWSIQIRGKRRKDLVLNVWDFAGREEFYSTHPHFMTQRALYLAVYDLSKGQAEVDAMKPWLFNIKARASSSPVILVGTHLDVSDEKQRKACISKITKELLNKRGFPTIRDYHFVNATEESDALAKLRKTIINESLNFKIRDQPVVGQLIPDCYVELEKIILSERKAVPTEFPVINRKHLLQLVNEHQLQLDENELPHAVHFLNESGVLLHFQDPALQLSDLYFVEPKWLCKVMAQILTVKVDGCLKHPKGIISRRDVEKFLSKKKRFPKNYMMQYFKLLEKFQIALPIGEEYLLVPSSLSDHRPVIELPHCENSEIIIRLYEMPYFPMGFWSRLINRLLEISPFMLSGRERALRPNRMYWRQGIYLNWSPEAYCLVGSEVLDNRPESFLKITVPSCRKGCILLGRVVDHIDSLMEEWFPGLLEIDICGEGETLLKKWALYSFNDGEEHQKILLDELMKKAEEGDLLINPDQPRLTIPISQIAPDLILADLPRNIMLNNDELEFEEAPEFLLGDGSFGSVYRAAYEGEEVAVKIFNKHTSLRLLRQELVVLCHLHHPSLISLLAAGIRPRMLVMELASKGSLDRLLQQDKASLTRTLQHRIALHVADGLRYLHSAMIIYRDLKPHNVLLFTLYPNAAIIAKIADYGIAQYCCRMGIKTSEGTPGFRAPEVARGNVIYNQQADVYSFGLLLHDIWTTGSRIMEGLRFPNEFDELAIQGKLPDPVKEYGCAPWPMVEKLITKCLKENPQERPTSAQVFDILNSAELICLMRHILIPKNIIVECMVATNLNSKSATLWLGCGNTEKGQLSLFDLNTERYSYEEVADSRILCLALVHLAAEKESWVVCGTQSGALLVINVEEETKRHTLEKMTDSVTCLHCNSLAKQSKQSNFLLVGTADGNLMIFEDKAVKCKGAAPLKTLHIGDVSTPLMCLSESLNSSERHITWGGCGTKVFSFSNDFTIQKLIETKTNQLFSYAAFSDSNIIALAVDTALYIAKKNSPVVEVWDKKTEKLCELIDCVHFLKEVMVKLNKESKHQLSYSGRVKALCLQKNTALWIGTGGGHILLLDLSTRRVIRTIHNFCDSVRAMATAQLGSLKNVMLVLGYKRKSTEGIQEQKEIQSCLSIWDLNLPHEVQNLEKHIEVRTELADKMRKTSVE

The target in test [1] is p62/SQSTM1 (mouse (endogenous in BV2)) (UniProt Q64337). The test can be described thus: co-IP; immunoprecipitation (IP) and reverse-IP of lysates from BV2 cells with antibodies specific for LRRK2 and p62, p62 and Nrf2; Western blot of the immunoprecipitated proteins. In general terms: Immunoblotting shows a protein as a band on a membrane.
The target of test [2] is T1, Nuclear factor erythroid 2-related factor 2 (Nrf2) (mouse (endogenous in BV2)) (UniProt Q60795).
T1 sequence: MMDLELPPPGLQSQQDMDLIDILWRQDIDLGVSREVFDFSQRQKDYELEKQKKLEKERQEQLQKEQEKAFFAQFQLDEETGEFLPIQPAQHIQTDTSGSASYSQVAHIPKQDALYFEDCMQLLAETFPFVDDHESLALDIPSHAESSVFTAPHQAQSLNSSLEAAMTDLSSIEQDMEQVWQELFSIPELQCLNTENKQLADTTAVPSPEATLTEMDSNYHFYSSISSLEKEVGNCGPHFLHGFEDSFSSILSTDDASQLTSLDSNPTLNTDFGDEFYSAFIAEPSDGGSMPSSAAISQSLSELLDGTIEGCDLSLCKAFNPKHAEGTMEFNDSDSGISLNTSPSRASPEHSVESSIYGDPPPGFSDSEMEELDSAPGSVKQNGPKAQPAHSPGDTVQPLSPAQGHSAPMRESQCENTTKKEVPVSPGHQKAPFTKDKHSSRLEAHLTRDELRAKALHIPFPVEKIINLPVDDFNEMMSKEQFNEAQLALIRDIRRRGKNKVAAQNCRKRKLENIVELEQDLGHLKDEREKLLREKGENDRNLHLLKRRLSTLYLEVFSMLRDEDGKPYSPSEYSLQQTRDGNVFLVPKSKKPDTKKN
The description is as above.

No constants are given. Whether binding was seen depends on the method and setting. Binding seen in cells or lysates may run through a third protein. Some binding calls cover weakened binding; strength is not graded here.

Take “Leucine-rich repeat kinase 2 (LRRK2) (from UniProt Q5S006 1-2527)”: the binding entry in test [1] was “binds”.
Consider “p62/SQSTM1 (from UniProt Q64337-1 1-442)”, for which the binding entry in test [2] was “binds”.
